Measurements as given in the supplement of paper PMC10849652.
This is one part of the list.

Chains of the proteins cited; added tags and fusions are not shown. Lines headed by an entry give the natural chain unless they say otherwise; changes in a name come on top.
UniProt Q9ULX3: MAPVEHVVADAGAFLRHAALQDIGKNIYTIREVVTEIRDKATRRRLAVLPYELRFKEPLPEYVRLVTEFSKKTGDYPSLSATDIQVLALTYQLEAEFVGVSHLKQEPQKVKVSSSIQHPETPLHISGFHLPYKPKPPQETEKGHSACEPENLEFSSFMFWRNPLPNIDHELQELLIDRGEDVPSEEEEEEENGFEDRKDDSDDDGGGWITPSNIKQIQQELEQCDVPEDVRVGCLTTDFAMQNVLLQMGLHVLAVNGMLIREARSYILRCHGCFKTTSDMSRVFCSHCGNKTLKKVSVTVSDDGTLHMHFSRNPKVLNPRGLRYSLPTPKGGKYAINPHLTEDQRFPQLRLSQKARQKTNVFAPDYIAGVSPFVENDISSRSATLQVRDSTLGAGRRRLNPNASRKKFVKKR
UniProt Q9BXD5: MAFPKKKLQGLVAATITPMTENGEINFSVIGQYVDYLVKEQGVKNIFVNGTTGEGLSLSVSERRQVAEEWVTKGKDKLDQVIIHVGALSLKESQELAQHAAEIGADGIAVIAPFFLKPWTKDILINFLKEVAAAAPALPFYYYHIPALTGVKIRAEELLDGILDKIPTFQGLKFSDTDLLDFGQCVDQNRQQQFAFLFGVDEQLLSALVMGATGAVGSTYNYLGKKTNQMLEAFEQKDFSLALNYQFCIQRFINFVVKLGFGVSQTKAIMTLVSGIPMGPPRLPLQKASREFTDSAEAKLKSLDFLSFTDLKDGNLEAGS
UniProt Q13469: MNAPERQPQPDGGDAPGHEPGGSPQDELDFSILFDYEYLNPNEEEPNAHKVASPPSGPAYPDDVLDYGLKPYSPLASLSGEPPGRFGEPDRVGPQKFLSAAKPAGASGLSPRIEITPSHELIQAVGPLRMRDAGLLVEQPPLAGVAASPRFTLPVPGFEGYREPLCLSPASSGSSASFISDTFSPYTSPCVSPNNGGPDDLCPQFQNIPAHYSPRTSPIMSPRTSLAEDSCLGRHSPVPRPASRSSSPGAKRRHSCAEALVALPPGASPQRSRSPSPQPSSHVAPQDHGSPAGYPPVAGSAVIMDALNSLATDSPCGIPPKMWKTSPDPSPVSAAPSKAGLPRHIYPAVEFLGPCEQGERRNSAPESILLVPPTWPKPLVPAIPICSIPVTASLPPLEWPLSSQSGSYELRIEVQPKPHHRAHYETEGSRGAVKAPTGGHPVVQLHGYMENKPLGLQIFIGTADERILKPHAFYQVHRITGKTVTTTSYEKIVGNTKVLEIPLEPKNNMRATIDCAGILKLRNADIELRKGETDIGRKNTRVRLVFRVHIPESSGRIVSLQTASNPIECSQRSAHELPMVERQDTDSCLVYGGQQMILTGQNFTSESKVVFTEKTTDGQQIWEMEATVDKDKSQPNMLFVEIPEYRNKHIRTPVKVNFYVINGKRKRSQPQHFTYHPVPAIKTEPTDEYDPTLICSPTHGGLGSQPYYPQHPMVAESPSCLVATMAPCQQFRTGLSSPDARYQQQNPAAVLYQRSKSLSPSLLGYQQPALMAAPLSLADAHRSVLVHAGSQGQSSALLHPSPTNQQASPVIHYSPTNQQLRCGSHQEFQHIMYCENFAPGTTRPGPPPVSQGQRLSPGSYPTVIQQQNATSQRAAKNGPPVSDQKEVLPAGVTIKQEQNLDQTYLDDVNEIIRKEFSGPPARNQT
UniProt O95644: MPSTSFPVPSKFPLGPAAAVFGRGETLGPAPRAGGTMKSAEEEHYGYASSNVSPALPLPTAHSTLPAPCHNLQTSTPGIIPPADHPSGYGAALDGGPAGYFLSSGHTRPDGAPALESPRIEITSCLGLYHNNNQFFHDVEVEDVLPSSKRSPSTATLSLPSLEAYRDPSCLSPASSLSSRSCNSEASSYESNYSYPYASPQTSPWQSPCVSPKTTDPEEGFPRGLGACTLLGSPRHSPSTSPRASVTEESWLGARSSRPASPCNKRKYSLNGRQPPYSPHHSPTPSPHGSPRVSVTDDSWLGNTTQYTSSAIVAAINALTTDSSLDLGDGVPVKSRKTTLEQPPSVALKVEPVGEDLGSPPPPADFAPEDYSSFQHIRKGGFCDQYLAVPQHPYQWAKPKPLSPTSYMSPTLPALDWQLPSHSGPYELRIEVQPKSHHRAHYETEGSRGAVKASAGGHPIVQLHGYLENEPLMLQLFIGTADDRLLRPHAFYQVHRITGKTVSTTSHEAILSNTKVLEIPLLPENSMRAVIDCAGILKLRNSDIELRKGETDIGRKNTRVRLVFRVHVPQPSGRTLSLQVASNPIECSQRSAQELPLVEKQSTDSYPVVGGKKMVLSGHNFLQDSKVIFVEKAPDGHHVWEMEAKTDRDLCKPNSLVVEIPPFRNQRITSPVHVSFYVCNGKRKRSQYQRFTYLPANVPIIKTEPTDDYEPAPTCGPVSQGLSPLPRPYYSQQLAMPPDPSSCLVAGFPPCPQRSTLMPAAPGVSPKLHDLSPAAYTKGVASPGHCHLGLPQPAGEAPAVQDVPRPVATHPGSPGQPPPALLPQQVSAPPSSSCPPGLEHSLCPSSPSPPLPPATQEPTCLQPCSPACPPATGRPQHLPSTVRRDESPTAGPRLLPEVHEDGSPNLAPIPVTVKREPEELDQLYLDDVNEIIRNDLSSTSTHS
UniProt Q9GZP1: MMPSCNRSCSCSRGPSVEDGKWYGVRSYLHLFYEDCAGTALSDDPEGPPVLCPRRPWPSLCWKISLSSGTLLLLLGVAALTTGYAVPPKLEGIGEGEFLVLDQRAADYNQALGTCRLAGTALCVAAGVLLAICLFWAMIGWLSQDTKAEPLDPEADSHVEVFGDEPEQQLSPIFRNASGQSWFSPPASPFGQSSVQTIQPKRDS
UniProt P25208: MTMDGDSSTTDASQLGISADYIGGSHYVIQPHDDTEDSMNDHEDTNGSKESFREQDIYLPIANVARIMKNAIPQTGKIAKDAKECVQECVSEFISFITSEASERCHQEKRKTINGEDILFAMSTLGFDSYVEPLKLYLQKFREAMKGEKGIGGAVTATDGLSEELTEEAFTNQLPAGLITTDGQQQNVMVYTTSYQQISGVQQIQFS
UniProt Q9Y239: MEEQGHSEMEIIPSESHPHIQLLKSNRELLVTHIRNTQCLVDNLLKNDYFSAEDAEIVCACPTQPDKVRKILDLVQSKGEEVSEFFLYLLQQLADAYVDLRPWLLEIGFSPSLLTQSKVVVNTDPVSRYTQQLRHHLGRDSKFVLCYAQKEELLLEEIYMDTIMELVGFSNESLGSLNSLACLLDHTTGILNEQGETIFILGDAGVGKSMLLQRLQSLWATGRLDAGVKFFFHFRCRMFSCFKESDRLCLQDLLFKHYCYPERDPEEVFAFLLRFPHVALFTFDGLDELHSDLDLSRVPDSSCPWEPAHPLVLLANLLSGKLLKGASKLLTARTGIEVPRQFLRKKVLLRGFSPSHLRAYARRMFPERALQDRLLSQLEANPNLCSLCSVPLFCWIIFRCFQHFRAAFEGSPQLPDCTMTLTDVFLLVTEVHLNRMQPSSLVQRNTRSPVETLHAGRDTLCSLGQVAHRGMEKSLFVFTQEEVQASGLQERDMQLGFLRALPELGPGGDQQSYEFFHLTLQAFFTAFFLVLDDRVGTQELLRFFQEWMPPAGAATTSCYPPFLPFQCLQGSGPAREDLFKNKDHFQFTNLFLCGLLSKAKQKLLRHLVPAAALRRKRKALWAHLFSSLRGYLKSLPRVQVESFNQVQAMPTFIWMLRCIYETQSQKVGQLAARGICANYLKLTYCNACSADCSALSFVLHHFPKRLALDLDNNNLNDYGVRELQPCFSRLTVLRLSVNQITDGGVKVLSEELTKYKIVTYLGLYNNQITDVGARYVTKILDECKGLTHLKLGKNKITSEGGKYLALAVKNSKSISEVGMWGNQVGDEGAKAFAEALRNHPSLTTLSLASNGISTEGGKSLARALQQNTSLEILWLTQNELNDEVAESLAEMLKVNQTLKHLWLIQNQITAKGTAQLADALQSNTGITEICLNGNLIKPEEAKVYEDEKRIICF
UniProt Q92859: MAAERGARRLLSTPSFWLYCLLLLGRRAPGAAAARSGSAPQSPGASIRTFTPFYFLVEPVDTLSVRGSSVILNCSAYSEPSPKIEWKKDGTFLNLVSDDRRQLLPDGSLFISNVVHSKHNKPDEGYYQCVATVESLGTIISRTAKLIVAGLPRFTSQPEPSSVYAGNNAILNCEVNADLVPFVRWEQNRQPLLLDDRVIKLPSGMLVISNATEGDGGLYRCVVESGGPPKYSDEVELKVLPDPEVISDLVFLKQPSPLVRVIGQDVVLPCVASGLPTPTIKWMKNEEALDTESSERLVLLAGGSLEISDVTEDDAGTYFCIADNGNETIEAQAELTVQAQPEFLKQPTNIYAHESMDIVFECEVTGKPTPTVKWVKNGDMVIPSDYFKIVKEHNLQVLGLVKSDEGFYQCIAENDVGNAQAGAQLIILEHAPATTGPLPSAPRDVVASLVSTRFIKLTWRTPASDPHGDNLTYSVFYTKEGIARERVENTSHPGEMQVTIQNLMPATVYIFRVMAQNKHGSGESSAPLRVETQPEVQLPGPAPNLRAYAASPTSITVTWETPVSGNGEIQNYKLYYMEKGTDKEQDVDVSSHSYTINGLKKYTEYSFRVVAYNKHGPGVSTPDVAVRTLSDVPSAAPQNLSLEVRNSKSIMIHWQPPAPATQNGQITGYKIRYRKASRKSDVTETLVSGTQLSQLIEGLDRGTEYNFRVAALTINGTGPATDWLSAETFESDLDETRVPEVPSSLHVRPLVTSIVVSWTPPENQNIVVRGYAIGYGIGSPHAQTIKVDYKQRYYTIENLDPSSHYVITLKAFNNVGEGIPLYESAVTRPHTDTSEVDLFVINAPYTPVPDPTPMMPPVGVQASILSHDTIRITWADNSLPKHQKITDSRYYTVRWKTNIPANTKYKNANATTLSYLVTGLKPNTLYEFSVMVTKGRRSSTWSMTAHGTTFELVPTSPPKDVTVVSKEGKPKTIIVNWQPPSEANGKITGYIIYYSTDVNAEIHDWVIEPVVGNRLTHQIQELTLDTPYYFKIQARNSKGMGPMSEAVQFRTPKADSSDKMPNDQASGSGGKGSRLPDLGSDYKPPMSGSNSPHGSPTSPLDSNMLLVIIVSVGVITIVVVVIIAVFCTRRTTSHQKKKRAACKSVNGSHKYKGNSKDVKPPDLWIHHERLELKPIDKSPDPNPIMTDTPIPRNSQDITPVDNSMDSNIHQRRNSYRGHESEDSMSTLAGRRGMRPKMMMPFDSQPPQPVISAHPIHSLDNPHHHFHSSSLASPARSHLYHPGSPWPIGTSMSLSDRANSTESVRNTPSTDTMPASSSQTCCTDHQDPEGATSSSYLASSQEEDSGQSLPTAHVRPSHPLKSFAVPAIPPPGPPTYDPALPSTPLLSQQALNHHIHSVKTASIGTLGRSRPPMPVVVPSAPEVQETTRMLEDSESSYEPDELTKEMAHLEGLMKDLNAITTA
UniProt Q8NEJ9: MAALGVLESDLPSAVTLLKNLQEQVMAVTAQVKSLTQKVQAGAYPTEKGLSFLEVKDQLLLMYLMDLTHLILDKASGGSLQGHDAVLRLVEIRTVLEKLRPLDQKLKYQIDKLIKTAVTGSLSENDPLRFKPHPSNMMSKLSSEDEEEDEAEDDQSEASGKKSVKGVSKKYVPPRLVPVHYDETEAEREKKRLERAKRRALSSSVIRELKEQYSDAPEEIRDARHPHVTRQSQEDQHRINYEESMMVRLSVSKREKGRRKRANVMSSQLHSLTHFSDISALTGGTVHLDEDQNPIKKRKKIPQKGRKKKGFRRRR
UniProt Q9NPE3: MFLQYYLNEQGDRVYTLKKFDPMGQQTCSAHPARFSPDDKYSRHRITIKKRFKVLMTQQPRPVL
UniProt P51956: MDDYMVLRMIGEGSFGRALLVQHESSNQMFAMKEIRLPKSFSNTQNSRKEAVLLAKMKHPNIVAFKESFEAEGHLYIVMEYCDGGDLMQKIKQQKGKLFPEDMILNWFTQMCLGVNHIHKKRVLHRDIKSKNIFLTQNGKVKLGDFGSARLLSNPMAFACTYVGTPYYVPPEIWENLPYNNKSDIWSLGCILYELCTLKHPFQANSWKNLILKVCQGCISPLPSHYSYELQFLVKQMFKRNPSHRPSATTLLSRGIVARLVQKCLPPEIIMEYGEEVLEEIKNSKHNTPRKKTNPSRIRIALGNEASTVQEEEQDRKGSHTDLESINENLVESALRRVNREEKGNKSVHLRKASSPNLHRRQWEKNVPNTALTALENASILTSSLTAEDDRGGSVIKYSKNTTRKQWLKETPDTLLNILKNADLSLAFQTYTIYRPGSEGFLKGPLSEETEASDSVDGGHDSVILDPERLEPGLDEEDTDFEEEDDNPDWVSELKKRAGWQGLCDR
UniProt O60936: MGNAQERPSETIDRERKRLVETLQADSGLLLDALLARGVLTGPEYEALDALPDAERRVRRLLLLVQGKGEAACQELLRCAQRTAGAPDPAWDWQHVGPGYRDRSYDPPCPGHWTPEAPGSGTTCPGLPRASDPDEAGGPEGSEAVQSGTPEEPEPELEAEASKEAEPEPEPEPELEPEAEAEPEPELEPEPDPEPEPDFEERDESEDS

What was measured:
Experiment in all cases: log2 fold change, soluble protein after heating vs DMSO (PISA); higher = thermal stabilisation; K562 cells, 10 uM, 30 min; active = over 0.2 and 3.5 SD of the protein, either way, in both replicates (recomputed)
[1] = compound: C1=CC=C(C=C1)[C@H](COC2=CC3=C(C=C2)NC(=O)N3)NC(=O)C4=CC=CN(C4=O)CC5=CC(=C(C=C5)F)F
Method in brief: (§1)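 K562 cells at 2×10^6 cells/mL were treated for 30 min with 10 μM compound, and aliquots were heated for 3 min over 48°C-58°C before pooling. Extraction used PBS with 0.5% NP-40 at 4°C, and soluble protein was the supernatant after 21,000xg for 90 min, measured by TMTpro 16plex LC-MS/MS with channel sums equalised. Thermal stability values, relative to control samples and from duplicates, are log2 fold changes.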

[2] = compound: CC1=C(SC2=C1C(=N[C@H](C3=NN=C(N32)C)CC(=O)N)C4=CC=C(C=C4)Cl)C
Method in brief: as §1

[3] = compound: CC1=C2C(=CC=C1)N=C(N(C2=O)C3=CC=CC=C3C)CN4C=NC5=C(N=CN=C54)N
Method in brief: as §1

[4] = compound: Cc1sc2c(c1C)C(c1ccc(Cl)cc1)=N[C@@H](CC(=O)OC(C)(C)C)c1nnc(C)n1-2
Method in brief: as §1

[5] = compound: c1ccc([C@@H]2C[C@H]2NC2CCNCC2)cc1
Method in brief: as §1

Measured: log2 fold change

NMT2 (UniProt O60551)
inactive: [1] -0.045 | [2] 0.053 | [3] 0.092 | [4] 0.026 | [5] -0.107

NOB1 (UniProt Q9ULX3)
inactive: [1] -0.048 | [2] -0.033 | [3] 0.048 | [4] 0.067 | [5] -0.06

NQO1 (UniProt P15559)
inactive: [1] 0.07 | [2] 0.122 | [3] 0.083 | [4] -0.015 | [5] -0.072

NIFK (UniProt Q9BYG3)
inactive: [1] 0.007 | [2] -0.104 | [3] -0.476 | [4] 0.066 | [5] -0.052

NPL (UniProt Q9BXD5)
inactive: [1] -0.014 | [2] -0.006 | [3] 0.067 | [4] 0.062 | [5] -0.015

NOP58 (UniProt Q9Y2X3)
inactive: [1] 0.039 | [2] -0.151 | [3] -0.063 | [4] 0.068 | [5] 0.031

NEK7 (UniProt Q8TDX7)
inactive: [1] 0.062 | [2] 0.048 | [3] 0.053 | [4] -0.019 | [5] -0.077

NLE1 (UniProt Q9NVX2)
inactive: [1] 0.043 | [2] 0.058 | [3] 0.001 | [4] -0.026 | [5] 0.004

NPLOC4 isoform 2 (UniProt Q8TAT6)
inactive: [1] -0.02 | [2] 0.018 | [3] 0.046 | [4] -0.029 | [5] 0.006

NFATC2 (UniProt Q13469)
inactive: [1] -0.063 | [2] 0.097 | [3] 0.077 | [4] 0.023 | [5] 0.021

NFE2 (UniProt Q16621)
inactive: [1] 0.054 | [2] -0.004 | [3] 0.12 | [4] 0.087 | [5] 0.145

NGLY1 (UniProt Q96IV0)
inactive: [1] -0.084 | [2] 0.01 | [3] 0.114 | [4] 0.014 | [5] -0.046

NELFE isoform 3 (UniProt P18615)
inactive: [1] -0.017 | [2] -0.004 | [3] -0.002 | [4] -0.003 | [5] 0.029

NSF (UniProt P46459)
inactive: [1] -0.018 | [2] 0.027 | [3] 0.073 | [4] -0.022 | [5] -0.033

NOTCH2 (UniProt Q04721)
inactive: [1] 0.087 | [4] -0.055

NOP14 (UniProt P78316)
inactive: [2] -0.027 | [3] -0.133 | [4] 0.191 | [5] -0.094

NRM (UniProt Q8IXM6)
inactive: [1] -0.034 | [2] -0.048 | [3] -0.044 | [4] 0.103 | [5] 0.136

NHLRC3 (UniProt Q5JS37)
inactive: [1] -0.018 | [2] 0.192 | [4] -0.055 | [5] 0.138

NR3C1 isoform 3 (UniProt P04150)
inactive: [2] -0.029 | [4] 0.042 | [5] 0.155

4 successive entries out of the list so far:
NQO1 (UniProt P15559)
inactive: [1] 0.07 | [2] 0.122 | [3] 0.083 | [4] -0.015 | [5] -0.072

NIFK (UniProt Q9BYG3)
inactive: [1] 0.007 | [2] -0.104 | [3] -0.476 | [4] 0.066 | [5] -0.052

NPL (UniProt Q9BXD5)
inactive: [1] -0.014 | [2] -0.006 | [3] 0.067 | [4] 0.062 | [5] -0.015

NOP58 (UniProt Q9Y2X3)
inactive: [1] 0.039 | [2] -0.151 | [3] -0.063 | [4] 0.068 | [5] 0.031

Carrying on.

NFATC1 (UniProt O95644)
inactive: [3] 0.311

NETO2 (UniProt Q8NC67)
inactive: [3] 0.077

NME2 isoform 2 (UniProt P22392)
inactive: [1] 0.035 | [2] 0.043 | [3] 0.041 | [4] 0 | [5] 0.013

NNT (UniProt Q13423)
inactive: [1] -0.014 | [2] 0.091 | [3] 0.044 | [4] -0.028 | [5] 0

NLRC3 isoform 2 (UniProt Q7RTR2)
inactive: [1] 0 | [2] -0.037 | [3] 0.433 | [5] 0.152

NIT2 (UniProt Q9NQR4)
inactive: [1] -0.016 | [2] 0.047 | [3] 0.06 | [4] -0.025 | [5] -0.012

NKIRAS2 (UniProt Q9NYR9)
inactive: [4] 0.057

NPEPPS (UniProt P55786)
inactive: [1] -0.044 | [2] 0.064 | [3] 0.159 | [4] -0.003 | [5] -0.051

NIPBL (UniProt Q6KC79)
inactive: [1] 0.112 | [4] -0.113

NRSN2 (UniProt Q9GZP1)
inactive: [4] 0.007

NENF (UniProt Q9UMX5)
inactive: [1] 0.038 | [2] 0.024 | [3] 0 | [4] -0.041 | [5] 0.004

NFE2L1 (UniProt Q14494)
inactive: [2] -0.126 | [3] -0.007 | [4] -0.113 | [5] -0.065

NEURL4 (UniProt Q96JN8)
inactive: [1] 0.008 | [2] -0.078 | [3] 0.115 | [5] 0.204

NSL1 (UniProt Q96IY1)
inactive: [1] 0.021 | [2] 0.059 | [3] 0.146 | [4] 0 | [5] -0.052

NEK1 isoform 3 (UniProt Q96PY6)
inactive: [2] 0.046 | [3] 0.148 | [5] 0.018

NOLC1 isoform 3 (UniProt Q14978)
inactive: [2] 0.007 | [5] -0.021

NOL4L (UniProt Q96MY1)
inactive: [4] 0.032

NFYB (UniProt P25208)
inactive: [1] -0.015 | [2] -0.119 | [3] -0.165 | [4] -0.048 | [5] 0.057

NELFCD (UniProt Q8IXH7)
inactive: [1] -0.022 | [2] 0.155 | [3] 0.214 | [5] 0.034

NOD1 (UniProt Q9Y239)
inactive: [1] 0.121 | [2] 0.013 | [5] -0.066

NR2C1 (UniProt P13056)
inactive: [1] 0.038 | [3] 0.234

NEO1 (UniProt Q92859)
inactive: [3] 0.045 | [4] -0.11

NGDN (UniProt Q8NEJ9)
inactive: [2] -0.047 | [4] -0.121 | [5] 0.278

NFIC isoform 6 (UniProt P08651)
inactive: [3] -0.029

NOP10 (UniProt Q9NPE3)
inactive: [1] 0.043 | [2] -0.001 | [5] -0.02

NFKBIA (UniProt P25963)
inactive: [3] -0.009

NLRX1 (UniProt Q86UT6)
inactive: [4] -0.056

NFKB2 (UniProt Q00653)
inactive: [1] 0.05 | [2] -0.076 | [4] 0.147 | [5] 0.126

NEK3 (UniProt P51956)
inactive: [2] 0.204 | [3] 0.053 | [4] -0.032 | [5] -0.094

NFKB1 isoform 2 (UniProt P19838)
inactive: [1] -0.253 | [2] 0.104 | [3] 0.048 | [4] 0.038 | [5] -0.176

NOL3 isoform 3 (UniProt O60936)
inactive: [2] -0.035 | [3] -0.069 | [4] 0.045 | [5] 0.182

NFKBIE (UniProt O00221)
inactive: [2] 0.128 | [3] 0.12 | [4] 0.012 | [5] -0.01
